PubChem BioAssay AID504784 | Drosophila RNAi Screening Center – 2011
The screen tested about 17,000 reagents; shown is a random part of those with a known target gene and a result. 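Each column is one replicate's B-score; the combined score over replicates was not deposited, so single values may mislead.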 Reagents against one gene are numbered here. Further read-outs or replicates are left out here. Reagent sequences are not shown.

Assay: 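Fly genes whose silencing alters how much lipid cells keep in droplets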 (primary screen)
System: Drosophila Kc167 embryonic cells
Knock-down reagent: long dsRNA against Drosophila genes, about 250 ng dsRNA per well
Timing: 4 days
Treatment: cells fed 400 µM oleic acid bound to BSA
Detection: 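Cells imaged and segmented; ratio of lipid droplet area to nuclear area, log-transformed, then normalised as a B-score over the screen; higher means more stored lipid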
Scale: droplet/nuclear area B-score: higher = more stored lipid (overstorage)

CG14252: droplet/nuclear area B-score, replicate 1 = -0.298
CG3708: droplet/nuclear area B-score, replicate 1 = 1.03
CG12672: droplet/nuclear area B-score, replicate 1 = 0.912
br #1: droplet/nuclear area B-score, replicate 1 = 0.342
br #2: droplet/nuclear area B-score, replicate 1 = 0.0419
br #3: droplet/nuclear area B-score, replicate 1 = 0.924
br #4: droplet/nuclear area B-score, replicate 1 = 0.745
CG14204: droplet/nuclear area B-score, replicate 1 = -0.128
h-cup: droplet/nuclear area B-score, replicate 1 = 0.0776
CG17982: droplet/nuclear area B-score, replicate 1 = -0.492
iav: droplet/nuclear area B-score, replicate 1 = -1.22
Surf4: droplet/nuclear area B-score, replicate 1 = -0.854
dpr14: droplet/nuclear area B-score, replicate 1 = -0.916
CG14605: droplet/nuclear area B-score, replicate 1 = -0.288
CG2641: droplet/nuclear area B-score, replicate 1 = -1.07
CG4282: droplet/nuclear area B-score, replicate 1 = 0.092
CG33458: droplet/nuclear area B-score, replicate 1 = -1.33

No new results follow: 7 of the entries above.
br #3: droplet/nuclear area B-score, replicate 1 = 0.924
br #4: droplet/nuclear area B-score, replicate 1 = 0.745
CG14204: droplet/nuclear area B-score, replicate 1 = -0.128
h-cup: droplet/nuclear area B-score, replicate 1 = 0.0776
CG17982: droplet/nuclear area B-score, replicate 1 = -0.492
iav: droplet/nuclear area B-score, replicate 1 = -1.22
Surf4: droplet/nuclear area B-score, replicate 1 = -0.854

The list goes on:
Spn47C: droplet/nuclear area B-score, replicate 1 = -0.212
TwdlZ: droplet/nuclear area B-score, replicate 1 = -0.561
dmGlut: droplet/nuclear area B-score, replicate 1 = -0.159
Cyp6g1: droplet/nuclear area B-score, replicate 1 = -0.627
CalpB: droplet/nuclear area B-score, replicate 1 = -0.14
Rcd1: droplet/nuclear area B-score, replicate 1 = 0.297
Klp68D: droplet/nuclear area B-score, replicate 1 = 0.278
Plp #1: droplet/nuclear area B-score, replicate 1 = -2.09
Plp #2: droplet/nuclear area B-score, replicate 1 = 0.415
Plp #3: droplet/nuclear area B-score, replicate 1 = 0.676
Smyd3: droplet/nuclear area B-score, replicate 1 = -1.5
AGO2 #1: droplet/nuclear area B-score, replicate 1 = 0.385
AGO2 #2: droplet/nuclear area B-score, replicate 1 = -0.082
skl: droplet/nuclear area B-score, replicate 1 = -1.41
CG11437: droplet/nuclear area B-score, replicate 1 = 0.742
pros #1: droplet/nuclear area B-score, replicate 1 = -1.04
pros #2: droplet/nuclear area B-score, replicate 1 = -5.45
pros #3: droplet/nuclear area B-score, replicate 1 = 1.02
Snmp2 #1: droplet/nuclear area B-score, replicate 1 = -1.41
Snmp2 #2: droplet/nuclear area B-score, replicate 1 = -2.32
Ssadh: droplet/nuclear area B-score, replicate 1 = -2.62
CG10514: droplet/nuclear area B-score, replicate 1 = 0.923
CG7655: droplet/nuclear area B-score, replicate 1 = 0.0591
